Experimental data taken from publication PMC8987532.
No constants are given. Whether binding was seen depends on the method and setting. In cells and extracts the contact can be indirect. Some results given as binding are weak or reduced against the parent protein; the word gives no strength. Sequences can lack the tags named with a protein.

Biological target: T1, Flag-TRIM65 (Tripartite motif containing 65) (human) (UniProt Q6PJ69)
T1 sequence: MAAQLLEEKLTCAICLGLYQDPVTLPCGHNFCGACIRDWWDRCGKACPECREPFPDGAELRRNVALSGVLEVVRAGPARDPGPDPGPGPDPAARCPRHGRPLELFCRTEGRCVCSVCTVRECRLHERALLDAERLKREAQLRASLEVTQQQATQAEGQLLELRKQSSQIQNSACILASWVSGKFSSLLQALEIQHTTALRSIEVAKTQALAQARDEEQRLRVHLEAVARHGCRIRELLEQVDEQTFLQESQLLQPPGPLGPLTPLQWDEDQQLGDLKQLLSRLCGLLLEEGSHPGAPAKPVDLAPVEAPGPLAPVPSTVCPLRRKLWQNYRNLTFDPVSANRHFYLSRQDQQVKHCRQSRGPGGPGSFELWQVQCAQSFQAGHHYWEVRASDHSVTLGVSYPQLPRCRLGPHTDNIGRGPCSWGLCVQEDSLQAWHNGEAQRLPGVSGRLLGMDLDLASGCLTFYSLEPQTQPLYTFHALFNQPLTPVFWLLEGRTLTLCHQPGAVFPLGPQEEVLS
Test: co-IP; HeLa cell lysates incubated overnight at 4°C with anti-FLAG antibody or IgG crosslinked to protein A/G beads; precipitates blotted with p53 antibodies

p53 (from UniProt P04637 1-393)
binding: binds
